The values below come from article PMC3893878.

No constants are given. Whether binding was seen depends on the method and setting. Binding seen in cells or lysates may run through a third protein. Some binding calls cover weakened binding; strength is not graded here.

The test has as its target T1, NADPH oxidase isoform 4 (Nox4), nuclear (human (endogenous in AFSC)) (UniProt Q9NPH5).
T1 sequence: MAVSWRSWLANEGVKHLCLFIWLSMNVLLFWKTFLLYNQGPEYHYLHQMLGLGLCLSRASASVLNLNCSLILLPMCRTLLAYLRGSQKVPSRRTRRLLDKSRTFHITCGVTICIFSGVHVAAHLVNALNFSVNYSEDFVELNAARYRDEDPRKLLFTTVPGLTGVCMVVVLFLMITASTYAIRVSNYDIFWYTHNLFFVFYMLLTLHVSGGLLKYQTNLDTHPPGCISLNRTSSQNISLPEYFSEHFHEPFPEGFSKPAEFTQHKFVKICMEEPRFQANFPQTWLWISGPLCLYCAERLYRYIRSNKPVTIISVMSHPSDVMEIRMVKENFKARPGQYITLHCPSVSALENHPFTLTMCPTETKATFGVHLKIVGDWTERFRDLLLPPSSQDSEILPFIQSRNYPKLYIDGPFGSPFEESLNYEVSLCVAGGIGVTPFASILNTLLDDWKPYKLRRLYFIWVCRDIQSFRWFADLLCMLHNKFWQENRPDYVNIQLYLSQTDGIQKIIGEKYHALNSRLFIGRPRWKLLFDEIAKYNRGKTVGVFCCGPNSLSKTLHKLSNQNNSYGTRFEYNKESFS
Nature of the test: co-IP; nuclear lysates of human AFSC precipitated overnight with anti-Nox4 (Novus), protein A/G agarose; washes with 1% Nonidet P-40, 150 mM NaCl, pH 7.0; Western blot; cells untreated or treated with 2 uM plumbagin.

B1: p22phox (protein, UniProt P13498 1-195)
chain: MGQIEWAMWANEQALASGLILITGGIVATAGRFTQWYFGAYSIVAGVFVCLLEYPRGKRKKGSTMERWGQKYMTAVVKLFGPFTRNYYVRAVLHLLLSVPAGFLLATILGTACLAIASGIYLLAAVRGEQWTPIEPKPRERPQIGGTIKQPPSNPPPRPPAEARKKPSEEEAAVAAGGPPGGPQVNPIPVTDEVV
As for B1, the binding entry is listed as “binds”.

B2: Matrin 3 (protein, UniProt P43243 1-847)
chain: MSKSFQQSSLSRDSQGHGRDLSAAGIGLLAAATQSLSMPASLGRMNQGTARLASLMNLGMSSSLNQQGAHSALSSASTSSHNLQSIFNIGSRGPLPLSSQHRGDADQASNILASFGLSARDLDELSRYPEDKITPENLPQILLQLKRRRTEEGPTLSYGRDGRSATREPPYRVPRDDWEEKRHFRRDSFDDRGPSLNPVLDYDHGSRSQESGYYDRMDYEDDRLRDGERCRDDSFFGETSHNYHKFDSEYERMGRGPGPLQERSLFEKKRGAPPSSNIEDFHGLLPKGYPHLCSICDLPVHSNKEWSQHINGASHSRRCQLLLEIYPEWNPDNDTGHTMGDPFMLQQSTNPAPGILGPPPPSFHLGGPAVGPRGNLGAGNGNLQGPRHMQKGRVETSRVVHIMDFQRGKNLRYQLLQLVEPFGVISNHLILNKINEAFIEMATTEDAQAAVDYYTTTPALVFGKPVRVHLSQKYKRIKKPEGKPDQKFDQKQELGRVIHLSNLPHSGYSDSAVLKLAEPYGKIKNYILMRMKSQAFIEMETREDAMAMVDHCLKKALWFQGRCVKVDLSEKYKKLVLRIPNRGIDLLKKDKSRKRSYSPDGKESPSDKKSKTDGSQKTESSTEGKEQEEKSGEDGEKDTKDDQTEQEPNMLLESEDELLVDEEEAAALLESGSSVGDETDLANLGDVASDGKKEPSDKAVKKDGSASAAAKKKLKKVDKIEELDQENEAALENGIKNEENTEPGAESSENADDPNKDTSENADGQSDENKDDYTIPDEYRIGPYQPNVPVGIDYVIPKTGFYCKLCSLFYTNEEVAKNTHCSSLPHYQKLKKFLNKLAEERRQKKET
For the molecule B2, the binding entry was “binds”.
